Source: PubChem BioAssay AID624002 (National Center for Advancing Translational Sciences (NCATS), 2012)
Inconclusive means that the source gave no clear call. Such entries were picked first, then a sample of the others. Potencies of inconclusive entries are doubtful fits and often do not repeat. Active and inactive are the calls of the source. Calls come from the whole dose curve; as a rule, active = well fitted inhibition curve with a large enough effect; inconclusive = small, poorly fitted or top-dose-only effect; inactive = no such curve, though single readings can be large or run the other way.

Amino acid sequences for entries named in this document (tags omitted).
UniProt O75874, whole entry R132H, stated change not applied: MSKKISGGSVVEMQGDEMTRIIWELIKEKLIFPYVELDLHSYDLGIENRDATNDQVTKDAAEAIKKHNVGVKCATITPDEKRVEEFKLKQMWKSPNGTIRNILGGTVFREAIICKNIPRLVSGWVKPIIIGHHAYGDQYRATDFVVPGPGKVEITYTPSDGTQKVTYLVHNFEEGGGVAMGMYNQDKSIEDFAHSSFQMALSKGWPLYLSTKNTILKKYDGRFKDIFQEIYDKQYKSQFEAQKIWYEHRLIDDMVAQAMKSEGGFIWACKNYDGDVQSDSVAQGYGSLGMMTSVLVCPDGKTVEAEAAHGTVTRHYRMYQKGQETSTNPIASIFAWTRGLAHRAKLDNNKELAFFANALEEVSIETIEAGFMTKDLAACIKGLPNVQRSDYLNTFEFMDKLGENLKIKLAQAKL
UniProt O75874, whole entry, looked up, stated change not applied: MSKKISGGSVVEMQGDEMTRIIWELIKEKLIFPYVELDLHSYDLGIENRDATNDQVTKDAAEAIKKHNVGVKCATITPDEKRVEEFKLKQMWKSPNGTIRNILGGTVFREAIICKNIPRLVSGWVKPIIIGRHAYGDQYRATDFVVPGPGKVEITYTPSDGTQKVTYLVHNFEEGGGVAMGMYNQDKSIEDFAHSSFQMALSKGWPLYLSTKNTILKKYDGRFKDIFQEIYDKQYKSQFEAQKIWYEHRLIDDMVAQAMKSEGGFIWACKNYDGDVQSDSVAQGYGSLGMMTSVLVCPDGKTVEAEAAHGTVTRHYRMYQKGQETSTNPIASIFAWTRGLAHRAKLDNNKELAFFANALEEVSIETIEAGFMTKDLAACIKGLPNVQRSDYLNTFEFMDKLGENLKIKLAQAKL

Target: Isocitrate dehydrogenase [NADP] cytoplasmic (Homo sapiens) (UniProt O75874)
Assay: qHTS for Inhibitors of mutant isocitrate dehydrogenase 1 (IDH1): Confirmation of Cherrypicks; note: nearly all actives have a fitted effect of over 50% in size
Conditions: IDH1 R132H enzyme, NADPH diaphorase/resazurin fluorescence; series mostly up to 76.6 µM
How it was run: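 IDH1 R132H (5.2 nM) was incubated with compound titrations (76 microM to 0.15 uM), 0.008 mM NADPH and 1 mM alpha-ketoglutarate in Tris pH 7.5 with MgCl2 for 80 min at room temperature. Remaining NADPH was read by diaphorase/resazurin fluorescence at 590 nm.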
Potency is the fitted concentration of half-maximal effect.

Compound | Potency
CC(=O)NC1C(=O)N(CCN2CCOCC2)c2ccc(Cl)cc21 (stereo unspecified) | inactive
CCN1CC=C2C(C#N)=C(N)C(C#N)(C#N)C(c3cc(Cl)ccc3Cl)C2C1 (stereo unspecified) | inactive
NC(=O)CN1C(=O)/C(=c2\sc3nc(=O)c(Cc4ccccc4)nn3c2=O)c2ccccc21 | inactive
COc1cccc(C(C(=O)NC2CCCCC2)N(C(=O)c2ccco2)c2ccccc2OC)c1 (stereo unspecified) | inconclusive: 39.8 µM [inhibitor, partial curve]
COc1ccc(-c2cc(-c3nnc(COC(=O)c4ccc(O)cc4)o3)c3ccccc3n2)cc1OC | inconclusive: 12.6 µM [inhibitor, full curve]
O=C(NC1CCCC1)C(c1ccncc1)N(C(=O)Cc1cccs1)c1ccccc1 (stereo unspecified) | inconclusive: 22.4 µM [inhibitor, full curve]
COc1cc(C2C3CN(C)CC=C3C(C#N)=C(N)C2(C#N)C#N)ccc1OC(C)C (stereo unspecified) | inactive
COC(=O)[C@@]12CCCCN1[C@H](c1ccc(-c3ccc(OC)cc3)c(OC)c1)[C@@H]1C(=O)N(C)C(=O)[C@@H]12 | active: 5.01 µM
COc1ccc(S(=O)(=O)N=Nc2c(O)[nH]c3ccccc23)cc1 | inconclusive: 44.7 µM [inhibitor, single point]
CCOC(=O)C1=C(O)/C(=C/c2ccc(OCC(=O)O)c(OCC)c2)SC1=Nc1ccc(OC)cc1 | inconclusive: 35.5 µM [inhibitor, partial curve]
CC(C)c1nc(N2CCN(C(=O)c3ccccc3)CC2)c(C#N)c2c1COC(C)(C)C2 | active: 22.4 µM
CCc1cc2c(=O)n(Cc3ccco3)c(SCC(=O)N3CCCc4ccccc43)nc2s1 | inconclusive: 39.8 µM [inhibitor, partial curve, poor fit]
c1ccc(N(c2ccccc2)c2nc(N3CCCC3)nc(-n3ccnc3)n2)cc1 | active: 6.31 µM
CCNC(=O)/C(C#N)=C/c1c(N(Cc2ccccc2)Cc2ccccc2)nc2ccccn2c1=O | active: 20 µM
Cc1cc(C)c(-c2n[nH]c3c2C(c2ccccc2F)N(Cc2ccco2)C3=O)c(O)c1 (stereo unspecified) | inconclusive: 28.2 µM [inhibitor, full curve]
CC(C)N(C(=O)CSc1nc(COc2ccccc2)nc2ccccc12)C(C)C | inconclusive: 39.8 µM [inhibitor, partial curve]
CCOC(=O)C1CCCN(C(=S)NC2CCCC2)C1 (stereo unspecified) | inactive
Cc1ccc(CSC2=Nc3ccccc3C3=NC(CCC(=O)NCCc4ccccc4)C(=O)N23)cc1 (stereo unspecified) | inactive
Cc1cccc(-c2c3c(=O)n(C)c(=O)n(C)c3cn2-c2cc(N)c(Cl)cc2Cl)c1 | inconclusive: 14.1 µM [inhibitor, partial curve, poor fit]
CN1CCN(NC(=O)c2cc(-c3ccc(Cl)s3)nc3ccccc23)CC1 | inactive
CCCOc1ccc(C2C(C(=O)c3ccc(C)o3)=C(O)C(=O)N2Cc2ccco2)cc1OCC (stereo unspecified) | inconclusive: 44.7 µM [inhibitor, partial curve]

Copied from the list.
Under Potency, CN1CCN(NC(=O)c2cc(-c3ccc(Cl)s3)nc3ccccc23)CC1 shows inactive
Under Potency, NC(=O)CN1C(=O)/C(=c2\sc3nc(=O)c(Cc4ccccc4)nn3c2=O)c2ccccc21 shows inactive
